Consider one molecule from US20250163116A1, “NEW METHOD TO TREAT INFECTIOUS DISEASES” (INSERM (INSTITUT NATIONAL DE LA SANTÉ ET DE LA RECHERCHE …, priority 2022, published 2025).

In this test the target is T1, Syndecan-4 (human) (UniProt P31431).
T1 sequence (looked up): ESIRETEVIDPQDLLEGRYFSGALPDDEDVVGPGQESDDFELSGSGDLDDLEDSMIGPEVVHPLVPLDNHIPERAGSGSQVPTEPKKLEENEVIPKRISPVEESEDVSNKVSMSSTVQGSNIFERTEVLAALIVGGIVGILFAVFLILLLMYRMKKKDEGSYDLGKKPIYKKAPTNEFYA
Kind of test: co-immunoprecipitation from endothelial cells infected by N. meningitidis.

These are yes or no findings as the source states them, for the method shown. In cells and extracts the contact can be indirect. Some binding calls cover weakened binding; strength is not graded here.

B1: ANGPTL4 produced by human endothelial cells (endogenous) (ligand)
chain: GPVQSKSPRFASWDEMNVLAHGLLQLGQGLREHAERTRSQLSALERRLSACGSACQGTEGSTDLPLAPESRVDPEVLHSLQTQLKAQNSRIQQLFHKVAQQQRHLEKQHLRIQHLQSQFGLLDHKHLDHEVAKPARRKRLPEMAQPVDPAHNVSRLHRLPRDCQELFQVGERQSGLFEIQPQGSPPFLVNCKMTSDGGWTVIQRRHDGSVDFNRPWEAYKAGFGDPHGEFWLGLEKVHSITGDRNSRLAVQLRDWDGNAELLQFSVHLGGEDTAYSLQLTAPVAGQLGATTVPPSGLSVPFSTWDQDHDLRRDKNCAKSLSGGWWFGTCSHSNLNGQYFRSIPQQRQKLKKGIFWKTWRGRYYPLQATTMLIQPMAAEAAS
Regarding B1, the binding result is given as “binds”.
